According to paper PMC6214909, “An asparagine/glycine switch governs product specificity of human N-terminal methyltransferase NTMT2” (Communications Biology, 2018):
These are yes or no findings as the source states them, for the method shown.

Tests used:
Assay in all cases: ITC; peptide (0.6–1.2 mM) titrated into protein (50–80 μM); 20 mM Tris–HCl pH 7.5, 150 mM NaCl, 0.5 mM TCEP, 25 °C; MicroCal VP-ITC; both purified
[1] = target: T1, NTMT2 (residues 58–278) D232A mutant (human) (UniProt Q5VVY1)
T1 sequence: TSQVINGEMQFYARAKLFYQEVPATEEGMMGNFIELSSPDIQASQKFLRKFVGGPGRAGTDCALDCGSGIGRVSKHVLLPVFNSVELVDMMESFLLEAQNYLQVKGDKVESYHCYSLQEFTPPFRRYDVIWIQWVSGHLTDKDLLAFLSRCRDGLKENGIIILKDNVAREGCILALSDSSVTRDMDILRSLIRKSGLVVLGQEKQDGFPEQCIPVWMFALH

[2] = target: T2, NTMT2 (residues 58–278) D235A mutant (human) (UniProt Q5VVY1)
T2 sequence: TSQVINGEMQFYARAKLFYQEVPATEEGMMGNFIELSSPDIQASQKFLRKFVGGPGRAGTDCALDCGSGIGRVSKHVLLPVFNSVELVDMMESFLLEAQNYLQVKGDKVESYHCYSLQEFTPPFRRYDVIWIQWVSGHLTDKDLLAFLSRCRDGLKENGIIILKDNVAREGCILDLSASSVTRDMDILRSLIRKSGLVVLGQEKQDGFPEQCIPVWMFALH

[3] = target: T3, NTMT2 (residues 58–278) N223A mutant (human) (UniProt Q5VVY1)
T3 sequence: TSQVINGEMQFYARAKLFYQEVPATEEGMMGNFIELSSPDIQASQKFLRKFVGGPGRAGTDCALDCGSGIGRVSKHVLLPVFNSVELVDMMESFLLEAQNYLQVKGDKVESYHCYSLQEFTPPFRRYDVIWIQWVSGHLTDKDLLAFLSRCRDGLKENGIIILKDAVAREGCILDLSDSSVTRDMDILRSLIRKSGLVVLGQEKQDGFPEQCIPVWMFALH

[4] = target: human NTMT2 (residues 58–278), wild type (human) (UniProt Q5VVY1)

Binder | binding [1] | binding [2] | binding [3] | binding [4]
SPKRIA [SPKRIA peptide (N-terminal hexapeptide of RCC1)] | no binding (tested: protein 50–80 μM, peptide 0.6–1.2 mM) | no binding (tested: protein 50–80 μM, peptide 0.6–1.2 mM) | no binding (tested: protein 50–80 μM, peptide 0.6–1.2 mM) | 
APKRIA (mono-methylated alpha-amino group on the first residue A1 (Ame1)) [Ame1PKRIA peptide] |  |  |  | no binding (tested: protein 50–80 μM, peptide 0.6–1.2 mM)
